PubChem BioAssay AID504786 | Drosophila RNAi Screening Center, 2011
Assay: 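Fly genes required for HIF-dependent transcription when hypoxia is mimicked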 (primary screen). Cell system: Drosophila S2 cells with a stable HIF luciferase reporter. Reagent: long dsRNA against Drosophila genes, about 0.2 µg dsRNA per well of a 384-well plate. Duration: three days of knock-down, then 20 h of DFO before reading. Challenge: desferrioxamine (DFO) at 100 µM, an iron chelator that mimics hypoxia, for 20 h. Measurement: 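HIF reporter luminescence in cells given 100 µM DFO for 20 h, using the mouse ldh-a hypoxia-response element, scored as per-plate z-scores; higher means greater loss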. Reading the numbers: z-score: higher = stronger loss of HIF reporter signal.
The screen tested about 21,000 reagents; this is an unselected part of those with a known target gene and a result. 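Primary screen; positive scores mean lost reporter signal, so the sign may be inverted from the usual convention.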 Reagents against one gene are numbered here. Not all columns of the deposit are shown.

Depletion of CG15425 resulted in: z-score, replicate 1 = -0.2.
CG8728 showed z-score, replicate 1 = -0.2.
CG31268 gave z-score, replicate 1 = -0.1.
After knock-down of CG4218 the results were z-score, replicate 1 = 2.9.
mute (muscle wasted) showed z-score, replicate 1 = 2.1.
For ytr (yantar) the deposit lists z-score, replicate 1 = -0.3.
Klp61F (Kinesin-like protein at 61F) gave z-score, replicate 1 = 1.8.
After knock-down of CG11912 the results were z-score, replicate 1 = -0.3.
With knock-down of CG6951, the record shows z-score, replicate 1 = -0.1.
CG13078 gave z-score, replicate 1 = -0.3.
CG34125 scored z-score, replicate 1 = -0.1.
After knock-down of Hsc70-2 (Heat shock protein 70 cognate 2), the screen gave z-score, replicate 1 = 0.2.
With knock-down of Cpr67Fa2 (Cuticular protein 67Fa2), the record shows z-score, replicate 1 = -0.1.
Against Prosalpha4 (Proteasome alpha4 subunit) the deposit lists z-score, replicate 1 = 1.3.
EndoG (Endonuclease G) showed z-score, replicate 1 = -0.4.
Depletion of vig (vasa intronic gene) #1 gave: z-score, replicate 1 = -0.3.
Knock-down of vig (vasa intronic gene) #2 resulted in: z-score, replicate 1 = -0.4.
CG17528 showed z-score, replicate 1 = -0.3.
Yip1d1 (Yip1 domain-containing 1) gave z-score, replicate 1 = -0.1.
D12 gave z-score, replicate 1 = -0.3.
Knock-down of CG2113 resulted in: z-score, replicate 1 = -0.3.
For Uba2 (Ubiquitin-like activating enzyme 2), the values are z-score, replicate 1 = -0.6.
Jarid2 (Jumonji, AT rich interactive domain 2) showed z-score, replicate 1 = -0.3.
For E23 (Early gene at 23) #1, the values are z-score, replicate 1 = 2.9.
After knock-down of E23 (Early gene at 23) #2 the results were z-score, replicate 1 = -0.1.
For CG12826 the deposit lists z-score, replicate 1 = 0.
After knock-down of CG17298, the record shows z-score, replicate 1 = 0.6.
Against CG33342 (HDC15381), the values are z-score, replicate 1 = -0.3.
Snp (Snipper) scored z-score, replicate 1 = -0.2.
Depletion of CG31099 resulted in: z-score, replicate 1 = -0.1.
CG6296 showed z-score, replicate 1 = -0.3.
Against CG3679, the entry reads z-score, replicate 1 = -0.1.
With knock-down of CG8202, the record shows z-score, replicate 1 = -0.2.
ine (inebriated) scored z-score, replicate 1 = -0.2.
Knock-down of CNT2 (Concentrative nucleoside transporter 2) resulted in: z-score, replicate 1 = -0.3.
ppk26 (pickpocket 26) scored z-score, replicate 1 = -0.2.
Obp56g (Odorant-binding protein 56g) showed z-score, replicate 1 = -0.1.
CG3088 scored z-score, replicate 1 = -0.3.
After knock-down of CG14362, the record shows z-score, replicate 1 = -0.4.
Against RASSF8 (Ras association domain family member 8), the values are z-score, replicate 1 = -0.3.
